Results deposited as PubChem BioAssay AID1224828 (NIAID, 2016)

Aim: 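Knock-downs that increase or decrease LPS-induced p65 nuclear translocation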 (primary screen)
System: mouse RAW264.7 G9 macrophage reporter cells (GFP-p65, Tnf promoter-mCherry)
Reagents: siRNA pool against mouse genes, 100 nM
Time to read-out: 2 days siRNA transfection, then 40 min LPS before fixation
Treatment: LPS (Salmonella minnesota R595) at 10 ng/ml
Measurement: 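Microscopy ratio of nuclear to perinuclear-ring GFP-p65 signal, scaled to the plate median; gene score is the average of two replicate robust z-scores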
Scale: p65 translocation robust z-score: higher = more nuclear NF-kappaB p65 after LPS than the plate median; nuclear/cytoplasmic p65 ratio: higher = more nuclear NF-kappaB p65
Call rule: 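Active if robust z is above 3.3 (negative regulators) or below -1.56, the Tlr4 control median (positive regulators); activity score 50 or more; control wells not called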
Calls: active = hit (p65 shift raised or lowered); inactive = no clear change
The deposit covers about 17,000 reagents; shown is a random part of them. Over the whole deposit, 762 (4.5%) were called active. 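Active calls include both raised and lowered p65 entry, mostly lowered; wells with fewer than 50 cells lack a z-score.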 Raw values are not corrected between plates. A number with no mark means an inactive call. The numbers tell different reagents against one gene apart.

| gene knocked down | pool no. | p65 translocation robust z-score | nuclear/cytoplasmic p65 ratio, rep 1 | nuclear/cytoplasmic p65 ratio, rep 2 | low cell count flag |
| --- | --- | --- | --- | --- | --- |
| Rab14 (RAB14, member RAS oncogene family) | 1 | 0.13 | 1.36 | 1.26 | enough cells to score |
| Ggt5 (gamma-glutamyltransferase 5) | 1 | -0.64 | 1.41 | 1.45 | enough cells to score |
| Zwint (ZW10 interactor) | 1 | -0.45 | 1.48 | 1.74 | enough cells to score |
| Or1o4 (olfactory receptor family 1 subfamily O member 4) | 1 | – | 1.36 | 1.06 | fewer than 50 cells per well; well left out of scoring |
| Eps15 (EGFR pathway substrate 15) | 1 | 1.26 | 1.58 | 1.58 | enough cells to score |
| Slc12a8 | 1 | 0.98 | 1.54 | 1.36 | enough cells to score |
| Oaf (out at first homolog) | 1 | -0.61 | 1.51 | 1.65 | enough cells to score |
| Tmem150b (transmembrane protein 150B) | 1 | 0.47 | 1.68 | 1.88 | enough cells to score |
| Amacr (alpha-methylacyl-CoA racemase) | 1 | 0.51 | 1.73 | 1.67 | enough cells to score |
| Pde6a (phosphodiesterase 6A, cGMP-specific, rod, alpha) | 1 | -0.31 | 1.43 | 1.35 | enough cells to score |
| Alms1 (ALMS1, centrosome and basal body associated) | 1 | 0.6 | 1.75 | 1.67 | enough cells to score |
| Ywhab | 1 | -0.51 | 1.46 | 1.41 | enough cells to score |
| Stxbp4 (syntaxin binding protein 4) | 1 | -0.24 | 1.36 | 1.23 | enough cells to score |
| Stxbp4 (syntaxin binding protein 4) | 2 | -0.64 | 1.26 | 1.39 | enough cells to score |
| Snrnp35 (small nuclear ribonucleoprotein 35 (U11/U12)) | 1 | – | 1.33 | 1.1 | fewer than 50 cells per well; well left out of scoring |
| 4732427B05 | 1 | -1.46 | 1.16 | 1.09 | enough cells to score |
| Tbx19 (T-box 19) | 1 | 0.23 | 1.58 | 1.52 | enough cells to score |
| 1110006O24Rik (RIKEN cDNA 1110006O24 gene) | 1 | – | 1.49 | 1.34 | fewer than 50 cells per well; well left out of scoring |
| Gmcl1 (germ cell-less, spermatogenesis associated 1) | 1 | -0.92 | 1.38 | 1.41 | enough cells to score |
| Fbxl9 (F-box and leucine-rich repeat protein 9) | 1 | 0.48 | 1.22 | 1.59 | enough cells to score |
| Usp36 (ubiquitin specific peptidase 36) | 1 | 0.87 | 1.74 | 1.74 | enough cells to score |
| P2ry14 (purinergic receptor P2Y, G-protein coupled, 14) | 1 | -0.52 | 1.48 | 1.46 | enough cells to score |
| Cep97 (centrosomal protein 97) | 1 | 0.75 | 1.44 | 1.62 | enough cells to score |
| Senp8 (SUMO peptidase family member, NEDD8 specific) | 1 | – | 1.24 | 1.05 | fewer than 50 cells per well; well left out of scoring |
| Tmem50a (transmembrane protein 50A) | 1 | 1.83 | 1.34 | 1.47 | enough cells to score |
| Glrx (glutaredoxin) | 1 | -0.26 | 1.48 | 1.26 | enough cells to score |
| Vamp1 (vesicle-associated membrane protein 1) | 1 | -1.7 (active) | 1.15 | 1.05 | enough cells to score |
| Chfr (checkpoint with forkhead and ring finger domains) | 1 | 0.07 | 1.42 | 1.43 | enough cells to score |
| Runx1 (runt related transcription factor 1) | 1 | -1.42 | 1.15 | 1.06 | enough cells to score |
| Nxph3 (neurexophilin 3) | 1 | -0.35 | 1.65 | 1.49 | enough cells to score |
| Trpv3 | 1 | – | 1.32 | 1.34 | fewer than 50 cells per well; well left out of scoring |
| Srsf10 (serine and arginine-rich splicing factor 10) | 1 | -1.37 | 1.24 | 1.21 | enough cells to score |
| Oga (O-GlcNAcase) | 1 | 0.94 | 1.52 | 1.51 | enough cells to score |
| Or6s1 (olfactory receptor family 6 subfamily S member 1) | 1 | -0.48 | 1.38 | 1.22 | enough cells to score |
| Ankrd33b (ankyrin repeat domain 33B) | 1 | 1.14 | 1.71 | 1.59 | enough cells to score |
| Slco1a5 | 1 | 2.08 | 1.49 | 1.46 | enough cells to score |
| Srp14 (signal recognition particle 14) | 1 | -0.25 | 1.4 | 1.2 | enough cells to score |
| Zap70 (zeta-chain (TCR) associated protein kinase) | 1 | – | 1.44 | 1.25 | fewer than 50 cells per well; well left out of scoring |
| Gm11961 (predicted gene 11961) | 1 | 0.3 | 1.38 | 1.61 | enough cells to score |
| Hif1a (hypoxia inducible factor 1, alpha subunit) | 1 | 0.87 | 1.59 | 1.45 | enough cells to score |
| Teddm3 (transmembrane epididymal family member 3) | 1 | – | 3.97 | 1.32 | fewer than 50 cells per well; well left out of scoring |
| Tmem252 (transmembrane protein 252) | 1 | – | 1.46 | 1.44 | fewer than 50 cells per well; well left out of scoring |
| Uevld (UEV and lactate/malate dehyrogenase domains) | 1 | 0.71 | 1.6 | 1.72 | enough cells to score |
| Rad18 (RAD18 E3 ubiquitin protein ligase) | 1 | 2.15 | 1.82 | 1.82 | enough cells to score |
| Nim1k (NIM1 serine/threonine protein kinase) | 1 | -0.18 | 1.71 | 1.32 | enough cells to score |
| Cfp (complement factor properdin) | 1 | 0.58 | 1.58 | 1.44 | enough cells to score |
| Selenos (selenoprotein S) | 1 | 2.37 | 2.07 | 1.82 | enough cells to score |
| Snrpa1 (small nuclear ribonucleoprotein polypeptide A') | 1 | – | 1.21 | 1.11 | fewer than 50 cells per well; well left out of scoring |
| Catsper4 (cation channel, sperm associated 4) | 1 | -0.26 | 1.56 | 1.74 | enough cells to score |
| Or6c212 (olfactory receptor family 6 subfamily C member 212) | 1 | – | 1.42 | 1.47 | fewer than 50 cells per well; well left out of scoring |
| Map3k11 (mitogen-activated protein kinase kinase kinase 11) | 1 | – | 1.78 | 1.41 | fewer than 50 cells per well; well left out of scoring |
| Bpifb5 (BPI fold containing family B, member 5) | 1 | -0.07 | 1.54 | 1.83 | enough cells to score |
| Aldh2 (aldehyde dehydrogenase 2, mitochondrial) | 1 | 0.59 | 1.63 | 1.78 | enough cells to score |
| Stard5 (StAR related lipid transfer domain containing 5) | 1 | -0.1 | 1.48 | 1.16 | enough cells to score |
| Zfp85os (zinc finger protein 85, opposite strand) | 1 | – | 1.25 | 1.54 | fewer than 50 cells per well; well left out of scoring |
| Dok7 (docking protein 7) | 1 | – | 1.35 | 1.42 | fewer than 50 cells per well; well left out of scoring |
| Sod2 (superoxide dismutase 2, mitochondrial) | 1 | 1.01 | 1.63 | 1.77 | enough cells to score |
| Gucy1a2 (guanylate cyclase 1, soluble, alpha 2) | 1 | 0.35 | 1.48 | 1.42 | enough cells to score |
| Gng5 (G protein subunit gamma 5) | 1 | 0.63 | 1.76 | 1.62 | enough cells to score |

Hits (from the list above):
| gene knocked down | pool no. | p65 translocation robust z-score | nuclear/cytoplasmic p65 ratio, rep 1 | nuclear/cytoplasmic p65 ratio, rep 2 | low cell count flag |
| --- | --- | --- | --- | --- | --- |
| Vamp1 (vesicle-associated membrane protein 1) | 1 | -1.7 (active) | 1.15 | 1.05 | enough cells to score |
